Test results published in article PMC9143004, “Antioxidant Properties and Aldehyde Reactivity of PD-L1 Targeted Aryl-Pyrazolone Anticancer Agents” (Molecules, 2022).
Some compounds share one wording; it may come from a single statement.

Tests used:
[1] = Adduct formation with 5-formyluracil, HRMS analysis; conditions: equimolar 5fU, 180 min, 37 °C, methanol:ammonium formate buffer 5 mM pH 4.5 (40:60); 0.5 mM (compound 4 at 0.1 mM)
[2] = DMPO spin-trapping EPR assay under Fenton conditions in methanol; conditions: ratio of kr to ka (DMPO-•OH) = 4.3 × 10^9 M^−1 s^−1
Experimental: In this case, we monitor the formation of an oxygen centered radical generated in the presence of the spin trapping agent DMPO under Fenton conditions (hydrogen peroxide plus ferrous ions). For practical reasons (compound solubility), experiments were carried out using methanol as a solvent and therefore, the methoxy radical is monitored. A typical six-line EPR signal is recorded, corresponding to the DMPO/^•OCH3 radical, with the characteristic hyperfine coupling constants aN = 13.9 G and aH = 8.3 G. Here again, we can measure the decay of the EPR signal in the presence of the different antioxidant compounds and compare their relative capacity to reduce the signal. Typical concentration-dependent response curves are presented in Figure 3a for compounds EDA, 2 and 4. All six compounds can induce a decrease of the EPR signal but with various degrees of efficacy (Figure 3b). Here again, the results were quantified through the measure of the area of the EPR signal as a function of the compound concentration, to allow the calculation of the reaction constants for each compound. […] Proper dose-response curves were constructed and fitted to determine the reaction rate constant (kr) for each compound, as shown in Figure 3c and the kr values are collated in Table 2.
CW-EPR experiments were performed with an X-band Bruker Elexsys E500 spectrometer (Bruker BioSpin GmbH, Rheinstetten, Germany) operating at 9.86 GHz. CW spectra were recorded at room temperature with a microwave power of 5.024–10.02 mW and a modulation amplitude of 1–2 G that assumes non-saturation conditions. The antioxidant activity was monitored using DPPH (1,1-diphenyl-2-picrylhydrazyl) at a final concentration of 100 µM as free radical scavenging molecule and DMPO (5,5-dimethyl-1-pyrroline N-oxide) as spin trap agent for the spin trapping experiments. The DMPO solution was freshly distillated prior to use at a final concentration of 1 mM or 2 mM. The solution mixture was filled into a glass capillary of 50 μL, which was in turn, placed in 4 mm quartz EPR tubes prior to analysis.
The percent inhibition of DPPH was calculated according to the following equation: I (%) = ((I0 − I)/I0) ∗ 100 where I0 is the area of the EPR spectrum of DPPH (control sample), and I is the area of the EPR spectrum of DPPH with antioxidant compound. The rate constant for the reaction of antioxidant compounds with ^•OCH3 is expressed by the following equation: 1/Ra = 1/Rf + (kr [AH]/(ka [DMPO] × Rf). Rf, and Ra indicate EPR signal area (double integration of EPR signal) of ^•OCH3, DMPO/^•OCH3, respectively. ka and [DMPO] are constants, and a plot of 1/Ra vs. [AH] (concentration of antioxidant compound) gives a straight line with 1/Rf as an intercept and kr/(ka[DMPO] Rf) as the slope. In these circumstances, the rate constant for the reaction of ^•OCH3 with antioxidant compounds (kr) can be expressed by the following equation: kr = (ka [DMPO] × slope)/interception.

[3] = Kinetic of bis-adduct formation with 5fU, HPLC-DAD
[4] = 0.5 mM compound and 5fU, 37 °C, pH 4.5, bis-adduct at 254 nm

Row | Compound | Adduct formation with 5fU (HRMS) [1] | DMPO kr/ka [2] | Reactivity coefficient toward 5fU (ratio of reaction rate, compound/EDA) [3, 4] | Reactivity coefficient toward 5fU (ratio of reaction rate, compound/EDA) ([3]; compared with EDA at 0.1 mM)
1 | CC1=NN(c2ccccn2)C(=O)C1 [Compound 1] | mono- and bis-adducts were detected | 30 | 0.2 | 
2 | CC1=NN(c2ccc(Cl)cc2Cl)C(=O)C1 [Compound 2] | mono- and bis-adducts were detected | 45 | 0.2 | 
3 | COc1ccccc1C1=NN(c2ccc(Cl)cc2Cl)C(=O)C1 [Compound 3] | mono- and bis-adducts were detected |  |  | 
4 | O=C1CC(c2ccc(Cl)cc2)=NN1c1ccc(Cl)cc1Cl [Compound 4] | mono- and bis-adducts were detected | 24 |  | 0.33
5 | O=C1CC(C23CC4CC(CC(C4)C2)C3)=NN1c1ccccc1Cl [Compound 5] | no adduct formation | 29 |  | 
6 | CC1=NN(c2ccccc2)C(=O)C1 [EDA, 1-phenyl-3-methyl-5-pyrazolone, reference compound] | forms mono- and bis-adducts | 60 | 1 | 
